Data reported in article PMC6891087.
Results are given in words; binding and its absence hold for the method and conditions named. In cells and extracts the contact can be indirect. Some results given as binding are weak or reduced against the parent protein; the word gives no strength. Sequences can lack the tags named with a protein.

Chains of the proteins cited; added tags and fusions are not shown.
UniProt Q96GD4: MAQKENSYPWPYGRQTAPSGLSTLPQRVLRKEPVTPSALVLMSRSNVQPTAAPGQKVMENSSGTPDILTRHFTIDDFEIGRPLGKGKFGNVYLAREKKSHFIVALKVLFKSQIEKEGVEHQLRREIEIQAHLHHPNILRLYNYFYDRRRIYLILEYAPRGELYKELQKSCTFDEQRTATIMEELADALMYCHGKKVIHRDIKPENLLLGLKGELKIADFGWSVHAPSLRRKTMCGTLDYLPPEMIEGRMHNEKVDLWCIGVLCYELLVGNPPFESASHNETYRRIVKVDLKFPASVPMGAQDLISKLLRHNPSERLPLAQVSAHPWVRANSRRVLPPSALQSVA

How the values were obtained:
Experiment in all cases: co-IP; anti-myc antibody on protein G beads; lysate of mitotic HeLa Kyoto cells (RO3306 washout, shake-off) transfected with Myc-Borealin constructs; 50 mM Tris pH 7.4, 400 mM NaCl, 0.5% IGEPAL, 0.1% deoxycholate; blots for Survivin, INCENP, Aurora B
Myc-Borealin 10-221 = biological target: T1, Myc-Borealin 10-221 (UniProt Q53HL2)
T1 sequence: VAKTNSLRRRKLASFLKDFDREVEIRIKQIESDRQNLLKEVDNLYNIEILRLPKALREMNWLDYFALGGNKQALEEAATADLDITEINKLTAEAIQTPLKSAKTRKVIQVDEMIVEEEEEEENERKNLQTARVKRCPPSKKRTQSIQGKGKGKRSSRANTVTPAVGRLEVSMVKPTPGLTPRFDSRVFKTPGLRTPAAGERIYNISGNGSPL

Myc-Borealin 10-end = biological target: T2, Myc-Borealin 10-end (UniProt Q53HL2)
T2 sequence: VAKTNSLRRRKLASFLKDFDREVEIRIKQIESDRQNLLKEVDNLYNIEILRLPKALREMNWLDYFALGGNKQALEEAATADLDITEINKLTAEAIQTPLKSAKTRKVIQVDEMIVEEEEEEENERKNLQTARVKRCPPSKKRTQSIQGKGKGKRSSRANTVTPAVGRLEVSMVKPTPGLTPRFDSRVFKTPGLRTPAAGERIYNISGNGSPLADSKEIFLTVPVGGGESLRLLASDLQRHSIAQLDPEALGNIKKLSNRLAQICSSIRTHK

Myc-Borealin Δloop = biological target: T3, Myc-Borealin Δloop (UniProt Q53HL2)
T3 sequence: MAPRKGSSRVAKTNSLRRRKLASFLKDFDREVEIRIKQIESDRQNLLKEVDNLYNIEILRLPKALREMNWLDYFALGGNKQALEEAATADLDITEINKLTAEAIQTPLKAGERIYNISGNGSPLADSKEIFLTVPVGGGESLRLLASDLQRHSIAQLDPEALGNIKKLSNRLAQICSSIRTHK

Measured: binding

Aurora B kinase (endogenous, HeLa) (from UniProt Q96GD4 1-344) (enzyme)
binds: all assays above
